The source of these data is patent US20230126992A1, “Antibacterial Antiviral Pharmaceutical Composition and Application Thereof” (priority 2020, published 2023).

The data set is described as follows: Toxicity test to Vero E6 cells (CCK8). Particulars: African green monkey.

Molecule `CCC(CC)COC(=O)[C@H](C)N[P@](=O)(OC[C@H]1O[C@@](C#N)(c2ccc3c(N)ncnn23)[C@H](O)[C@@H]1O)Oc1ccccc1` [Remdesivir] registered a CC50 at 3 days of over 200 µM.
